From doi:10.1101/189324 come the findings set out here.

By UniProt entry, the sequences of proteins in these tests, tags left out. Residues count along the entry.
UniProt P20029, residues 20-655: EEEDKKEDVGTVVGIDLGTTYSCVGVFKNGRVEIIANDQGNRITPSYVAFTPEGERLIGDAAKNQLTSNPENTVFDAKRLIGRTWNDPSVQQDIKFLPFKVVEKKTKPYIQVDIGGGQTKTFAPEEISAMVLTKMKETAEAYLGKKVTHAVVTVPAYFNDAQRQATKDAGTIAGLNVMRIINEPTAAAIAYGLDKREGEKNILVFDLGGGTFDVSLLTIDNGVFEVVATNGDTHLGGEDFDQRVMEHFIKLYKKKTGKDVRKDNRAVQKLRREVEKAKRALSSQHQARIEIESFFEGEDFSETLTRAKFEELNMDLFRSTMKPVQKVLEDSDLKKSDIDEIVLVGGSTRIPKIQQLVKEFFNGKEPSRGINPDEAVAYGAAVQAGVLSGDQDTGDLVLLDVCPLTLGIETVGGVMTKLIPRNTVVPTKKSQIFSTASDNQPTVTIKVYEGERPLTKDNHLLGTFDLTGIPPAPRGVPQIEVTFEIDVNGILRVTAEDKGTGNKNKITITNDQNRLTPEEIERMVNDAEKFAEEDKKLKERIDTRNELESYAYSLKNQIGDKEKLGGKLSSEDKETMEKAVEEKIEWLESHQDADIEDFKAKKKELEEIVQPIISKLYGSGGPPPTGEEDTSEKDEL
UniProt P08113, residues 22-802: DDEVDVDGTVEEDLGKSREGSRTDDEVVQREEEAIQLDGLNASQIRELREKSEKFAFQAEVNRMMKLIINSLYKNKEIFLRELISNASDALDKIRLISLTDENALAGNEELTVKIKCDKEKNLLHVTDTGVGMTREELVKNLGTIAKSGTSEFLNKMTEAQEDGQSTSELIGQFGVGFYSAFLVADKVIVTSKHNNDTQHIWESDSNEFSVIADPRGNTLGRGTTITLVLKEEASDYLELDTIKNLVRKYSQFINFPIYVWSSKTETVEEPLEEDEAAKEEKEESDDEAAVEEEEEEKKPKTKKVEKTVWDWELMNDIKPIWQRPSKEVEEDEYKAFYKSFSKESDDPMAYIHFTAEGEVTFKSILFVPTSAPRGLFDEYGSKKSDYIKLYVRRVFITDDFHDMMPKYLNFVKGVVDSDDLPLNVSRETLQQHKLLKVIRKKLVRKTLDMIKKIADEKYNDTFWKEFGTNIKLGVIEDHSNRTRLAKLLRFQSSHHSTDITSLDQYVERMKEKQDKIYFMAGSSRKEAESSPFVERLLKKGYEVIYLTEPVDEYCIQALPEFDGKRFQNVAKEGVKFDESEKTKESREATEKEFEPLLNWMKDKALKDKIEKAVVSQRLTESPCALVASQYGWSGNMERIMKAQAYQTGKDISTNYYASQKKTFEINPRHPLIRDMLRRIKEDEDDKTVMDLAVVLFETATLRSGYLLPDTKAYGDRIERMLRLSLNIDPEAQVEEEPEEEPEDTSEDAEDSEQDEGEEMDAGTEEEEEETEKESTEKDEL

Results are given in words; binding and its absence hold for the method and conditions named. In cells and extracts the contact can be indirect. A yes stands for co-enrichment or nearness to the bait. Other partners may have been found. Where a sequence is shown, tags or fusion partners need not be part of it.

In the test the target is T1, Recombinant His-tagged secretagogin (SCGN) (UniProt Q91WD9).
T1 sequence: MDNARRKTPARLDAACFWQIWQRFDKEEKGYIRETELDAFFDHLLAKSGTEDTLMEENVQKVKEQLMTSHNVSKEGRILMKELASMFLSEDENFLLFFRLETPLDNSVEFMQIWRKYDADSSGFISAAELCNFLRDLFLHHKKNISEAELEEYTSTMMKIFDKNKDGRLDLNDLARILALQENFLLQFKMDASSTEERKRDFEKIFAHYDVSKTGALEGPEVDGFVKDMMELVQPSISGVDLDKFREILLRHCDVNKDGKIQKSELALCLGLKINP
Put plainly: affinity purification with mass spectrometry.
Turning to PDI (mouse (endogenous in MIN6)), the binding entry is listed as “binds”. The entry for BiP (from UniProt P20029 20-655) is “binds”; for GRP94 (from UniProt P08113 22-802) it is “binds”.
